Some results were stated once for a whole list of compounds, not compound by compound. Some ranges recur; such a range may be that of the whole group of compounds.
Columns and labels:
[1] = system: harmful plants ALOMY, ECHCG, SETVI, AMARE, POLCO, STEME and VIOTR; experiment: Herbicidal pre-emergence action (greenhouse pot test); assay type: in vivo; details: pre-emergence method, 320 g of active substance per hectare; against several, in particular three or more, of the mentioned harmful plants
[2] = system: harmful plants ECHCG, SETVI, ABUTH, AMARE, PHBPU, POLCO, STEME, and VIOTR; experiment: Herbicidal post-emergence action (greenhouse pot test); assay type: in vivo; details: post-emergence method, 320 g of active substance per hectare; against several, in particular three or more, of the mentioned harmful plants

Row | Compound | excellent activity [1] | excellent activity [2]
1 | Nc1nsc2c(=O)n(CC3CCCCC3)ccc12 [I-4] | 90-100% | 90-100%
2 | Nc1nsc2c(=O)n(Cc3cc(F)c(F)cc3F)ccc12 [I-34] | 90-100% | –
3 | CCC(=O)N(C(=O)CC)c1nsc2c(=O)n(CC3CCCCCC3)ccc12 [II-333] | 90-100% | 90-100%
4 | COC(=O)CC(=O)Nc1nsc2c(=O)n(CC3CCCCC3)ccc12 [II-247] | 90-100% | 90-100%
5 | O=C(CBr)Nc1nsc2c(=O)n(CC3CCCCC3)ccc12 [II-94] | 90-100% | 90-100%
6 | COC(=O)CCC(=O)Nc1nsc2c(=O)n(CC3CCCCC3)ccc12 [II-264] | 90-100% | 90-100%
7 | O=C(Nc1nsc2c(=O)n(CC3CCCC3)ccc12)C(F)(F)C(F)(F)F [II-161] | 90-100% | 90-100%
8 | CCC(=O)Nc1nsc2c(=O)n(CC3=C(Cl)CCCC3)ccc12 [II-369] | 90-100% | 90-100%
9 | O=C(Nc1nsc2c(=O)n(CC3CCCCC3)ccc12)C(F)(F)C(F)(F)F [II-162] | 90-100% | 90-100%
10 | COCC(=O)Nc1nsc2c(=O)n(CC3CCCCCC3)ccc12 [II-197] | 90-100% | 90-100%
11 | O=C(Nc1nsc2c(=O)n(CC3CCCCC3Cl)ccc12)C(F)(F)F (centres unmarked) [II-152] | 90-100% | 90-100%
12 | CCC(=O)Nc1nsc2c(=O)n(CC3CCCC3)ccc12 [II-25, N-[6-(cyclopentylmethyl)-7-oxo-isothiazolo[5,4-c]pyridin-3-yl]propanamide] | 90-100% | 90-100%
13 | Nc1nsc2c(=O)n(Cc3ccc(Cl)cc3)ccc12 [I-17, 3-amino-6-[(4-chlorophenyl)methyl]isothiazolo[5,4-c]pyridin-7-one] | 90-100% | –
14 | CC(=O)Nc1nsc2c(=O)n(CC3CCCCC3)ccc12 [II-2] | 90-100% | 90-100%
15 | O=C(CC(F)(F)F)Nc1nsc2c(=O)n(CC3CCCCCC3)ccc12 [II-112] | 90-100% | 90-100%
16 | O=C(Nc1nsc2c(=O)n(CC3CCCCC3)ccc12)C(F)(F)F [II-145] | 90-100% | 90-100%
17 | CCC(=O)Nc1nsc2c(=O)n(Cc3cc(F)c(F)cc3F)ccc12 [II-32] | 90-100% | 90-100%
18 | CC(=O)N(C(C)=O)c1nsc2c(=O)n(CC3CCCCCC3)ccc12 [II-350] | 90-100% | 90-100%
19 | Nc1nsc2c(=O)n(C3CCCCC3)ccc12 [III-2] | 90-100% | –
20 | COC(=O)CCC(=O)N(C(=O)CCC(=O)OC)c1nsc2c(=O)n(CC3CCCCC3)ccc12 [II-387] | 90-100% | 90-100%
21 | CCOC(=O)C(=O)Nc1nsc2c(=O)n(CC3CCCCC3)ccc12 [II-365] | 90-100% | 90-100%
22 | Nc1nsc2c(=O)n(Cc3ccc(F)cc3F)ccc12 [I-22] | 90-100% | –
23 | CCC(=O)N(C(=O)CC)c1nsc2c(=O)n(CC3CCCCC3Cl)ccc12 (centres unmarked) [II-342] | 90-100% | 90-100%
24 | O=C(Nc1nsc2c(=O)n(C[C@@H]3CCCC[C@@H]3Cl)ccc12)C(F)(F)C(F)(F)F [II-172] | 90-100% | 90-100%
25 | CCC(=O)N(C(=O)CC)c1nsc2c(=O)n(CC3CCCC3)ccc12 [II-331] | 90-100% | 90-100%
26 | CCOCC(=O)N(C(=O)COCC)c1nsc2c(=O)n(CC3CCCCC3)ccc12 [II-390] | 90-100% | 90-100%
27 | CCOC(=O)CCCC(=O)Nc1nsc2c(=O)n(CC3CCCCC3)ccc12 [II-368] | 90-100% | 90-100%
